The list does not hold the whole screen: it is rich in T/C values a quarter to a half above the control, in often repeated tests (any T/C) and in doses without a T/C. Other doses and runs of a compound stand elsewhere. T/C gives the treated animals as a percentage of the vehicle group. Some entries give survivors of the animals treated and no T/C: the source files T/C as zero there, which appears to mark a toxic dose or a test without result, not a measured value. Some doses without a T/C left all or most animals alive at the check, yet need not have been tolerated: survival well below the control is almost never listed, so the zero probably covers shortened survival too. Survivors were counted at the toxicity check, usually on the fifth day, unless a day is given; later deaths do not show. Schedules are NCI's codes, read here as Q, the interval in days (D) or hours (H), X, the number of doses. Some entries were tested several times; the results are listed from low to high. Where survival is the endpoint, this PubChem deposit counts one and a half times the control or more as active, and values a quarter to a half above the control carry no call in these data; other NCI protocols may use other cut-offs. Some T/C values are followed by the survivors on the day toxicity was checked, most often the fifth; where none is given, no animal had died by that day.
System: BDF1 mice, P388 leukemia ip, median survival T/C
Assay: NCI In Vivo Anticancer Drug Screen. Data for tumor model P388 Leukemia (intraperitoneal) in B6D2F1 (BDF1) mice
Conditions: T/C endpoint: median survival time, higher T/C = longer survival
Method: The antitumor activity of compounds was measured in mice bearing transplantable tumors. Survival or tumor size were measured and the results are expressed as the measurement made in the treated group (T) divided by the measurement made in the vehicle treated control group (C). The tumor model used in this assay is P388 Leukemia (intraperitoneal) in B6D2F1 (BDF1) mice

[1] = dose: 200.0 mg/kg/injection, schedule: Q01DX009 (ip), vehicle: Klucel (hydroxypropylcellulose) (HPC)
[2] = dose: 400.0 mg/kg/injection, schedule: Q01DX009 (ip), vehicle: Klucel (hydroxypropylcellulose) (HPC)
[3] = dose: 200.0 mg/kg/injection, schedule: Q01DX005 (ip), vehicle: saline with Tween-80
[4] = dose: 150.0 mg/kg/injection, schedule: Q01DX009 (ip), vehicle: saline with Tween-80
[5] = dose: 100.0 mg/kg/injection, schedule: Q04DX003 (ip), vehicle: saline
[6] = dose: 100.0 mg/kg/injection, schedule: Q01DX009 (ip), vehicle: Klucel (hydroxypropylcellulose) (HPC)
[7] = dose: 100.0 mg/kg/injection, schedule: Q01DX009 (ip), vehicle: saline with Tween-80
[8] = dose: 200.0 mg/kg/injection, schedule: Q01DX009 (ip), vehicle: saline with Tween-80
[9] = dose: 50.0 mg/kg/injection, schedule: Q01DX009 (ip), vehicle: saline with Tween-80
[10] = dose: 100.0 mg/kg/injection, schedule: Q04DX003 (ip), vehicle: saline with Tween-80
[11] = dose: 200.0 mg/kg/injection, schedule: Q04DX003 (ip), vehicle: saline with Tween-80
[12] = dose: 400.0 mg/kg/injection, schedule: Q04DX003 (ip), vehicle: saline with Tween-80
[13] = dose: 200.0 mg/kg/injection, schedule: Q04DX002 (ip), vehicle: saline with Tween-80
[14] = dose: 400.0 mg/kg/injection, schedule: Q04DX002 (ip), vehicle: saline with Tween-80
[15] = dose: 50.0 mg/kg/injection, schedule: Q01DX009 (ip), vehicle: saline
[16] = dose: 100.0 mg/kg/injection, schedule: Q01DX009 (ip), vehicle: saline
[17] = dose: 200.0 mg/kg/injection, schedule: Q01DX009 (ip), vehicle: saline

C[C@]12C=CC(=O)C=C1[C@@H](F)C[C@@H]1[C@@H]2[C@@H](O)C[C@@]2(C)[C@H]1CC[C@]2(O)C(=O)CO
survivor count [1]: 4 of 6
survivor count [2]: 6 of 6

O=CN(O)CC(=O)O.[Cu]
survivor count (dose: 20.0 mg/kg/injection, schedule: Q04DX003 (ip), vehicle: saline): 5 of 6
survivor count (dose: 30.0 mg/kg/injection, schedule: Q04DX003 (ip), vehicle: saline): 0 of 6
survivor count (dose: 40.0 mg/kg/injection, schedule: Q01DX001 (ip), vehicle: saline): 0 of 6

O=S1ON=C(C2CCC(C3=NOS(=O)O3)C2)O1 (stereo not drawn)
survivor count [3]: 4 of 5

CC12CCOC(=O)/C=C/C=C/C(=O)OC3CC4OC5C6OC6(C)CCC5(COC(=O)C1O2)C3(C)C41CO1 (stereo not drawn)
T/C (dose: 1.25 mg/kg/injection, schedule: Q01DX009 (ip), vehicle: saline + alcohol): 127 % of control
T/C (dose: 5.0 mg/kg/injection, schedule: Q01DX009 (ip), vehicle: saline + alcohol): 148 % of control

c1ccc(Oc2c3ccccc3nc3ccccc23)cc1
T/C (dose: 25.0 mg/kg/injection, schedule: Q01DX005 (ip), vehicle: saline with Tween-80): 128 % of control
T/C (dose: 50.0 mg/kg/injection, schedule: Q01DX005 (ip), vehicle: saline with Tween-80): 131 % of control
T/C (dose: 100.0 mg/kg/injection, schedule: Q01DX005 (ip), vehicle: saline with Tween-80): 128 and 142 % of control
survivor count [3]: 0 of 5 and 2 of 5

Cc1cc(=O)[nH]c2c1CCCC2
T/C (dose: 37.5 mg/kg/injection, schedule: Q01DX009 (ip), vehicle: saline with Tween-80): 127 % of control
T/C [4]: 127 % of control

CC(C)(CC(=O)O)c1ccccc1
T/C [5]: 128 % of control

O=NN(CCCl)C(=O)Nc1ccc(NC(=O)N(CCCl)N=O)cc1
T/C (dose: 1.0 mg/kg/injection, schedule: Q04DX003 (ip), vehicle: Klucel (hydroxypropylcellulose) (HPC)): 127 and 134 % of control
T/C (dose: 67.0 mg/kg/injection, schedule: Q01DX009 (ip), vehicle: Klucel (hydroxypropylcellulose) (HPC)): 134 % of control
T/C [6]: 126, 140, 165, 180 % of control
survivor count [2]: 5 of 6

Cc1ccc(SC2CC3CC2C2COCC32)cc1 (stereo not drawn)
survivor count (dose: 150.0 mg/kg/injection, schedule: Q01DX009 (ip), vehicle: Klucel (hydroxypropylcellulose) (HPC)): 4 of 6
survivor count (dose: 225.0 mg/kg/injection, schedule: Q01DX009 (ip), vehicle: Klucel (hydroxypropylcellulose) (HPC)): 2 of 6

CCO/C=C(\C#N)C(=O)O
survivor count [7]: 6 of 6

O=C(NC(=O)c1c(F)cccc1F)Nc1ccc(OCc2ccccc2)cc1
survivor count [8]: 6 of 6

Nc1ccc(/C=C/c2ccnc3ccccc23)cc1
survivor count [9]: 6 of 6
survivor count [10]: 6 of 6
survivor count [11]: 0 of 6
survivor count [12]: 0 of 6

NC(=O)c1cc(=S)[nH]c2nc(Cl)nc(N)c12
survivor count [13]: 4 of 6
survivor count [14]: 1 of 6

CCN=NNc1ccc(C)cc1
T/C (dose: 33.0 mg/kg/injection, schedule: Q01DX009 (ip), vehicle: saline with Tween-80): 127 % of control [5 of 6 alive]
survivor count (dose: 66.0 mg/kg/injection, schedule: Q01DX009 (ip), vehicle: saline with Tween-80): 2 of 6
survivor count [7]: 0 of 6
T/C [4]: 129 % of control
survivor count [4]: 0 of 6

Cc1ccc(C(=O)C2CC2)cc1C
T/C [9]: 135 % of control
T/C [7]: 130 % of control

O=C(CCCl)N1CCN(C(=O)CCCl)CC1
T/C [6]: 140 % of control
T/C [1]: 125 % of control [5 of 6 alive]

Cc1c2ccccc2cc2cc[n+]3ccccc3c12
T/C (dose: 7.5 mg/kg/injection, schedule: Q01DX010 (ip), vehicle: carboxymethylcellulose (CMC)): 130 % of control [5 of 6 alive]
T/C (dose: 15.0 mg/kg/injection, schedule: Q01DX010 (ip), vehicle: carboxymethylcellulose (CMC)): 135 % of control
survivor count (dose: 30.0 mg/kg/injection, schedule: Q01DX010 (ip), vehicle: carboxymethylcellulose (CMC)): 0 of 6
survivor count (dose: 60.0 mg/kg/injection, schedule: Q01DX010 (ip), vehicle: carboxymethylcellulose (CMC)): 0 of 6

CCCCNCCC(SS)c1ccc(Cl)cc1 (stereo not drawn)
survivor count [11]: 6 of 6

C[C@]12CC[C@H]3[C@@H](CCC4=CC(=O)CC[C@@]43C)[C@@H]1CC[C@@H]2OC(=O)Cc1ccc(N(CCCl)CCCl)cc1
T/C [8]: 131 % of control
T/C (dose: 256.0 mg/kg/injection, schedule: Q01DX009 (ip), vehicle: Klucel (hydroxypropylcellulose) (HPC)): 144 % of control
T/C (dose: 512.0 mg/kg/injection, schedule: Q01DX009 (ip), vehicle: Klucel (hydroxypropylcellulose) (HPC)): 134 % of control

Nc1ccn(C2CC(O)C(CO)O2)c(=O)n1 (stereo not drawn)
T/C (dose: 4.6 mg/kg/injection, schedule: Q01DX009 (ip), vehicle: water): 144 % of control

CCN(CC)CC(O)CNC(=O)c1c2nc3c(C(=O)NCC(O)CN(CC)CC)ccc(C)c3oc-2c(C)c(=O)c1N (stereo not drawn)
survivor count (dose: 150.0 mg/kg/injection, schedule: Q04DX002 (ip), vehicle: saline with Tween-80): 3 of 6
survivor count [13]: 4 of 6
survivor count [14]: 0 of 6

CN(C)c1ccc(/C=C/C2CC[N-]C3C(O)CCCC23)cc1.CN(C)c1ccc(/C=C/C2CC[N-]C3C(O)CCCC23)cc1.CN(C)c1ccc(/C=C/C2CC[N-]C3C(O)CCCC23)cc1.[Fe+3] (stereo not drawn)
T/C [14]: 125 % of control

CC1(C)N=C(N)N=C(N)N1c1ccc(C(=O)CCl)cc1
survivor count [15]: 3 of 6
survivor count [16]: 1 of 6
survivor count [17]: 0 of 6

CNC(=O)C(C)C1C(=O)/C(=C(O)/C=C/C(C)=C\C(C)C2OC3(C)OC(C=CC34CO4)C2C)C(=O)N1C1CCC(O)C(C)O1 (stereo not drawn)
T/C [16]: 131 % of control
survivor count (dose: 130.0 mg/kg/injection, schedule: Q01DX009 (ip), vehicle: Klucel (hydroxypropylcellulose) (HPC)): 3 of 6
T/C [17]: 140 % of control
survivor count (dose: 300.0 mg/kg/injection, schedule: Q01DX009 (ip), vehicle: Klucel (hydroxypropylcellulose) (HPC)): 5 of 6

CCN(CC)Cc1c(O)ccc2c3c(c(=O)oc12)CCCC3
survivor count (dose: 128.0 mg/kg/injection, schedule: Q01DX005 (ip), vehicle: saline): 0 of 4
survivor count (dose: 256.0 mg/kg/injection, schedule: Q01DX005 (ip), vehicle: saline): 0 of 4

CCOC(=O)/C=C(\C)Sc1cc(O)c2ccccc2c1O
survivor count (dose: 12.5 mg/kg/injection, schedule: Q01DX009 (ip), vehicle: saline with Tween-80): 5 of 6

CC(=O)Nc1ncc(Sc2ccc([N+](=O)[O-])cc2)s1
survivor count (dose: 50.0 mg/kg/injection, schedule: Q04DX003 (ip), vehicle: saline with Tween-80): 0 of 6
survivor count [10]: 0 of 6
survivor count [11]: 0 of 6
survivor count [12]: 0 of 6

Cc1ccc(S(=O)(=O)N(CCC(=N)N)C(C)C)cc1
survivor count [5]: 1 of 6

NNC12CC3CC(CC(C3)C1)C2
survivor count [15]: 0 of 6
survivor count [16]: 0 of 6
survivor count [5]: 6 of 6

OC(CC1CCCCN1)c1cc(C(F)(F)F)nc2c(C(F)(F)F)cccc12 (stereo not drawn)
survivor count [7]: 3 of 6
survivor count [8]: 0 of 6

CC(Cc1ccc(O)c(O)c1)C(C)Cc1ccc(O)c(O)c1 (stereo not drawn)
survivor count (dose: 400.0 mg/kg/injection, schedule: Q01DX010 (ip), vehicle: saline): 0 of 6

COc1cc(Br)c(/C=C(\C)[N+](=O)[O-])cc1OC
survivor count (dose: 400.0 mg/kg/injection, schedule: Q01DX001 (ip), vehicle: saline with Tween-80): 0 of 6

Reference: PubChem BioAssay AID328 (DTP/NCI, 2004)
